Publication PMC3663545, “Allosteric Activation of Trypanosomatid Deoxyhypusine Synthase by a Catalytically Dead Paralog*^([image sbox.jpg])^♦” (The Journal of Biological Chemistry, 2013)
No constants are given. Whether binding was seen depends on the method and setting. For part of these data: Binding seen in cells or lysates may run through a third protein. Some entries that bind do so weakly or less than the wild type. Sequences can lack the tags named with a protein. Each block holds one binder with its values, some of them ahead of it.

Assays:
[1] = target: T1, FLAG-TbDHSp (T. brucei deoxyhypusine synthase prozyme (activating) subunit, N-terminally FLAG-tagged) (T. brucei) (UniProt Q4GZD1); assay: co-IP; soluble lysate (50 ug protein, 80 mM NaCl, 10 mM Tris pH 7.5) of BSF T. brucei co-expressing AU1-TbDHSc and FLAG-TbDHSp; anti-AU1 or anti-FLAG M2 antibody 12 h at 4 °C, Dynabeads protein A; Western blot with anti-AU1 and anti-FLAG
T1 sequence: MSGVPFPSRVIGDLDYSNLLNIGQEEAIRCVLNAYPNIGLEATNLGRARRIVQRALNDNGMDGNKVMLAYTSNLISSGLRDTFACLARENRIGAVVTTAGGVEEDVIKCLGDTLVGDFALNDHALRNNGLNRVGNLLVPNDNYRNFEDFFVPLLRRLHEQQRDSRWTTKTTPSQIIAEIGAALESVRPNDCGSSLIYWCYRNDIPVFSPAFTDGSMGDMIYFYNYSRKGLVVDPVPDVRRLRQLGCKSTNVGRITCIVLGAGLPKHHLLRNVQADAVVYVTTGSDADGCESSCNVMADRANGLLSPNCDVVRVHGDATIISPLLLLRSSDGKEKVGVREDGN

[2] = target: T2, AU1-TbDHSc (T. brucei deoxyhypusine synthase, catalytic subunit, N-terminally AU1-tagged) (T. brucei) (UniProt Q38BX0); assay: as above
T2 sequence: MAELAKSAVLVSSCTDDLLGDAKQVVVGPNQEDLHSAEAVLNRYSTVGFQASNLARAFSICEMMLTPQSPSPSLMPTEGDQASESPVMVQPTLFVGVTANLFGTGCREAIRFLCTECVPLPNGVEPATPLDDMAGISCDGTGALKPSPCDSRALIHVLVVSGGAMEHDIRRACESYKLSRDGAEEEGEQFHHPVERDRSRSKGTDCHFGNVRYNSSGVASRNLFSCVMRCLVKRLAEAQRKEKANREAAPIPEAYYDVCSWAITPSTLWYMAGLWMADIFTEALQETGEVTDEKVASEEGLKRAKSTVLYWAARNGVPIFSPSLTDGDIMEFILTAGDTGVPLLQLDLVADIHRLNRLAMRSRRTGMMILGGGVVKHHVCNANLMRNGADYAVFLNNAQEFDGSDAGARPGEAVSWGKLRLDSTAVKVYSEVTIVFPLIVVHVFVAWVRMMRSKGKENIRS

[3] = target: T3, TbDHSc (T. brucei deoxyhypusine synthase, catalytic subunit), recombinant, expressed as His6-SUMO-TbDHSc (T. brucei) (UniProt Q38BX0); assay: SEC; tagless TbDHSp co-expressed with His6-SUMO-TbDHSc in E. coli; co-purified by Ni2+-affinity, SUMO tag removed with Ulp1, then Superdex 200 Prep Grade in 50 mM Tris-HCl pH 7.5, 200 mM NaCl, 1 mM DTT; peak fraction analysed by SDS-PAGE; both purified
T3 sequence: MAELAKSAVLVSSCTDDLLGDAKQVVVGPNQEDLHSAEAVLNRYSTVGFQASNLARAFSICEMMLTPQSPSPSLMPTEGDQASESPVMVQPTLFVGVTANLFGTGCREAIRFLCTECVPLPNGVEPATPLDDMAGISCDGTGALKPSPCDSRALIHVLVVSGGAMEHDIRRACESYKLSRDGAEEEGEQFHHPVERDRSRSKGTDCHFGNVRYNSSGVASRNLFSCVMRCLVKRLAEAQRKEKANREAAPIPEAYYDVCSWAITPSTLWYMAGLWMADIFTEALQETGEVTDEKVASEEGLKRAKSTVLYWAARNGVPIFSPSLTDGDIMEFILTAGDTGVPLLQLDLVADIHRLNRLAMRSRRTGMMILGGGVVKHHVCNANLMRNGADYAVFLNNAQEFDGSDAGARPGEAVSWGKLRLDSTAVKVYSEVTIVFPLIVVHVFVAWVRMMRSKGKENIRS

binding [1]: binds
B1: AU1-TbDHSc (T. brucei deoxyhypusine synthase, catalytic subunit, N-terminally AU1-tagged) (enzyme, UniProt Q38BX0 1-461)
chain: MAELAKSAVLVSSCTDDLLGDAKQVVVGPNQEDLHSAEAVLNRYSTVGFQASNLARAFSICEMMLTPQSPSPSLMPTEGDQASESPVMVQPTLFVGVTANLFGTGCREAIRFLCTECVPLPNGVEPATPLDDMAGISCDGTGALKPSPCDSRALIHVLVVSGGAMEHDIRRACESYKLSRDGAEEEGEQFHHPVERDRSRSKGTDCHFGNVRYNSSGVASRNLFSCVMRCLVKRLAEAQRKEKANREAAPIPEAYYDVCSWAITPSTLWYMAGLWMADIFTEALQETGEVTDEKVASEEGLKRAKSTVLYWAARNGVPIFSPSLTDGDIMEFILTAGDTGVPLLQLDLVADIHRLNRLAMRSRRTGMMILGGGVVKHHVCNANLMRNGADYAVFLNNAQEFDGSDAGARPGEAVSWGKLRLDSTAVKVYSEVTIVFPLIVVHVFVAWVRMMRSKGKENIRS

binding [2]: binds
B2: FLAG-TbDHSp (T. brucei deoxyhypusine synthase prozyme (activating) subunit, N-terminally FLAG-tagged) (protein, UniProt Q4GZD1 1-342)
chain: MSGVPFPSRVIGDLDYSNLLNIGQEEAIRCVLNAYPNIGLEATNLGRARRIVQRALNDNGMDGNKVMLAYTSNLISSGLRDTFACLARENRIGAVVTTAGGVEEDVIKCLGDTLVGDFALNDHALRNNGLNRVGNLLVPNDNYRNFEDFFVPLLRRLHEQQRDSRWTTKTTPSQIIAEIGAALESVRPNDCGSSLIYWCYRNDIPVFSPAFTDGSMGDMIYFYNYSRKGLVVDPVPDVRRLRQLGCKSTNVGRITCIVLGAGLPKHHLLRNVQADAVVYVTTGSDADGCESSCNVMADRANGLLSPNCDVVRVHGDATIISPLLLLRSSDGKEKVGVREDGN

B3: TbDHSp (T. brucei deoxyhypusine synthase prozyme (activating) subunit), recombinant, untagged (natural protein, UniProt Q4GZD1 1-342, looked up)
chain: MSGVPFPSRVIGDLDYSNLLNIGQEEAIRCVLNAYPNIGLEATNLGRARRIVQRALNDNGMDGNKVMLAYTSNLISSGLRDTFACLARENRIGAVVTTAGGVEEDVIKCLGDTLVGDFALNDHALRNNGLNRVGNLLVPNDNYRNFEDFFVPLLRRLHEQQRDSRWTTKTTPSQIIAEIGAALESVRPNDCGSSLIYWCYRNDIPVFSPAFTDGSMGDMIYFYNYSRKGLVVDPVPDVRRLRQLGCKSTNVGRITCIVLGAGLPKHHLLRNVQADAVVYVTTGSDADGCESSCNVMADRANGLLSPNCDVVRVHGDATIISPLLLLRSSDGKEKVGVREDGN
notes: T. brucei deoxyhypusine synthase prozyme subunit (TbDHSp), catalytically dead paralog, TriTrypDB Tb927.1.870; open reading frame cloned untagged into the HindIII-KpnI site of pT7-FLAG-MAT-Tag-2 with a stop codon inserted; 37 kDa on SDS-PAGE; the vector's C-terminal tag was removed by insertion of a stop codon; also called tagless TbDHSp; untagged TbDHSp
binding [3]: binds
